# Library compounds against nucleic acid targets

Targets, with sequences 5′ to 3′:
PreQ1: PreQ1 riboswitch RNA pseudoknot, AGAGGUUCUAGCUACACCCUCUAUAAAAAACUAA. From B. subtilis. Hit rate about 0.7% of about 24,000 compounds.
TPP: TPP riboswitch RNA three-way junction, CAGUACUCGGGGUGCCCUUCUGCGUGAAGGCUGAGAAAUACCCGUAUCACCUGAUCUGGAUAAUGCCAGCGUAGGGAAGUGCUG. Hit rate about 0.7% of about 24,000 compounds.
SAM-II: SAM-II riboswitch RNA pseudoknot, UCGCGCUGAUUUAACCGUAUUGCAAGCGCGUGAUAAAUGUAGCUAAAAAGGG. Hit rate about 1% of about 21,000 compounds.

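Compounds were printed on reactive glass slides in duplicate spots, a dye-labelled oligonucleotide was laid over them, and the fluorescence left after washing was read. The data file lists only calls. An earlier report of the laboratory on the PreQ1, TPP and SAM-II riboswitches (doi:10.1038/s41467-019-09493-3) used 1 µM RNA for 2 h and required a mean Z-score above 3 (spot signal-to-noise against the whole library), a score well above that on a control array, and duplicate spots agreeing (coefficient of variation under 100); it then also set aside compounds that hit other targets, which this list keeps. The cut-offs behind this list may differ. The calls come from the array alone, and fixing a compound to the slide can hide its binding.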 “1” means called a hit, “0” means screened and not called a hit. This is an unselected part of the compounds tested. A dash means that no call is listed here.

compound,PreQ1,TPP,SAM-II
OCCN1CCSC1=S,0,0,0
CC(C)n1cnnc1CN(C)C(=O)c1cccc(NCC(=O)O)c1,0,0,0
CCOc1c(CNCCCn2ccnc2)cc(Cl)cc1OC,0,0,0
OCCOc1ccc(CN2CCOC(c3ccc(Cl)cc3)C2)cc1 (centres unmarked),0,0,0
Cc1nc2c(c(N3CCN(c4ccccc4O)CC3)n1)CCNCC2,0,0,0
Cc1ccc(-c2cnc(NCc3c(F)cccc3Cl)n2C)cc1,0,0,0
c1ccc(CCNC2CCC3(CCNCC3)CC2)nc1,0,0,0
Cc1ccc(NC2c3ccccc3C(=O)N2c2cccnc2)cc1C (centres unmarked),0,0,0
CCCOc1ccc(C2c3c(-c4ccccc4O)n[nH]c3C(=O)N2CCO)cc1 (centres unmarked),0,0,-
N#Cc1nc(-c2ccc(S(=O)(=O)N3CCCC3)cc2)oc1NCC1CCCO1 (centres unmarked),0,0,-
C=CCOC(=O)C1=C(C)OC(N)=C(C(=O)OCC)C12C(=O)Nc1ccc(Br)cc12 (centres unmarked),0,0,0
Cc1ccc(Nc2nc(C3(C)CC4(CC(C)OC4=O)C(=O)O3)cs2)cc1 (centres unmarked),0,0,0
CNC(=O)c1nn(-c2ccc(F)cc2)nc1CO,0,0,-
OCCCn1cnc(-c2ccccc2)c1-c1ccc(O)c(Cl)c1,0,0,0
COC(=O)c1sc(N2CCC(C)CC2)nc1N,1,1,1
CCc1nnc2c3ccccc3nc(Nc3ccccc3C)n12,0,0,0
O=C(N[C@H]1CC[C@H]1NC1CCOCC1)c1cnc(Nc2ccccc2)nc1,0,0,0
Cc1ncc(CO)c(C=NNS(=O)(=O)c2ccc(C(C)(C)C)cc2)c1O,0,0,0
CSc1ncc(CNC(=O)[C@@]23CNC[C@@H]2CN(C2CCCC2)C3)n1C,0,0,0
Nc1c(C(=O)NCCO)nnn1Cc1ccccc1,0,0,0
O=C1CC(NCCc2c[nH]c3ccccc23)C(=O)N1CCc1ccccc1 (centres unmarked),0,0,0
Cc1[nH]c2ccccc2c1C(=O)c1sc2ncccc2c1N,0,0,0
O=C(CC1=CCNCC1)N1CCCCC1CCc1ccc(O)cc1 (centres unmarked),0,0,0
O=c1oc2ccccc2c(NCCN2CCOCC2)c1[N+](=O)[O-],0,0,0
Cc1cccc(Nc2nc(-c3c(C)nc4ncccn34)cs2)c1,0,0,0
N#CC12CNCC1CN=N2 (centres unmarked),0,0,0
COC(=O)c1sc2ncccc2c1N,0,0,0
CCCC(O)c1ccc(-c2ccc(OC)nc2)cc1 (centres unmarked),0,0,0
C=CCOC(=O)C1=C(C)OC(N)=C(C(=O)OCC)C12C(=O)Nc1ccccc12 (centres unmarked),0,0,0
CN1CCC(n2nc(-c3ccco3)nc2[C@@H](N)Cc2ccc(O)cc2)CC1,0,0,0
O=C(NCc1ccc2nsnc2c1)c1cc(CN2CCC(O)CC2)on1,0,0,0
CSCCC(O)C(=O)N(C)Cc1csc(C(C)C)n1 (centres unmarked),0,0,0
O=C1CC(NC2CCCC2)C(=O)N1c1ccc(Br)cc1 (centres unmarked),0,0,0
Cc1ccc(N2C(N)=C(C#N)C(c3ccsc3)C3=C2CC(C)(C)CC3=O)cc1 (centres unmarked),0,0,0
COc1ccc(-c2nn(-c3ccccc3)cc2C(=O)O)cc1N,0,0,0
Cc1ccc(Nc2nc(C)cc(N3CCN(S(=O)(=O)Cc4ccccc4)CC3)n2)cc1,0,0,-
COc1cnc(CN2CCCC(Nc3ccc(F)c(F)c3)C2)cc1O (centres unmarked),0,0,0
O=C(c1cnn2c1CCCC2)N1CCOCC(O)C1 (centres unmarked),0,0,0
Cc1ccc(NCC(=O)n2c(C)c(C)c3ccccc32)c(C)c1,0,0,0
Cc1ccc(-c2cc(Nc3ccc(C(N)=O)cc3)nc(C)n2)cc1,0,0,-
CN(Cc1cnn(-c2ccc(F)cc2)c1)C(=O)[C@H]1Cc2ccccc2CN1,0,0,0
CN1CCC(CNc2nccc(C3(c4ccccc4Cl)CCNCC3)n2)C1 (centres unmarked),0,0,0
Cc1cc(N)n(-c2ccc(Oc3ccccc3)cc2S(=O)(=O)O)n1,0,0,0
CCC(C)N(C)C(=O)c1cc2ccccc2c(-c2ccccc2Cl)n1 (centres unmarked),0,0,0
Nc1ccnc(N2CC[C@]3(O)CCN(CC(=O)O)C[C@@H]3C2)n1,0,0,0
COc1ccccc1OCC(O)Cn1c(C2CC(=O)N(c3ccccc3)C2)nc2ccccc21 (centres unmarked),0,0,-
N#CC1=C(N)OC2=C(C1c1ccccc1F)S(=O)(=O)N(Cc1ccccc1F)c1ccccc12 (centres unmarked),0,0,-
COc1ccc2c(CNCCC3=CCCCC3)c(C(=O)O)n(C)c2c1,0,0,-
COc1ccc(-c2c(C)nn3c(NCCN4CCOCC4)cc(C)nc23)cc1OC,0,0,0
CCN(CC)Cc1cc(NC2=NS(=O)(=O)c3ccccc32)ccc1O,0,0,0
C#CCOc1ccc(C2C(C#N)=C(N)Oc3cc4c(cc32)OCO4)cc1OCC (centres unmarked),0,0,0
O=c1nc(Oc2ccccc2)nc2ncccn12,0,0,0
CCC(c1ccccc1)c1nnc(N)s1 (centres unmarked),0,0,0
CCOC(=O)N1CCN(c2c(NCCCN3CCCC(C)C3)c(=O)c2=O)CC1 (centres unmarked),0,0,-
CC(C)C(=O)N1c2ccccc2C(Nc2ccccc2)CC1C (centres unmarked),0,0,0
O=C1Nc2ccccc2NC12CCN(c1ccc3cc(Cl)ccc3n1)CC2,0,0,0
CN(CCCOc1ccccc1Cl)C(=O)C1(N)CC1,0,0,0
N#Cc1nc(C=Cc2ccc(F)cc2)oc1NC1CCCCC1,0,0,-
CCOc1ccc(Nc2c(-c3ccc(OC)cc3)c(=O)c2=O)cc1,0,0,-
Cc1sc(-n2cccc2CNCc2ccc(F)cc2)c(C(=O)O)c1C,0,0,-
COc1ccccc1-c1cc2nc(C)cc(N3CCN(CCO)CC3)n2n1,0,0,-
COCC1=C(C(=O)OC)C(c2cccc(Br)c2)C(C#N)=C(N)O1 (centres unmarked),0,0,0
c1ccc(C2NCCc3[nH]cnc32)cc1 (centres unmarked),0,0,0
COc1ccc(CNc2ccc3c(c2)nc(C)n3Cc2ccccc2)cc1,0,0,0
Cc1ccccc1-c1noc(-c2nnn(-c3ccccc3Cl)c2N)n1,0,0,-
NS(=O)(=O)c1cc2c(cc1Cl)NC(C(Cl)Cl)NS2(=O)=O (centres unmarked),0,0,0

The first 9 entries again:

compound	PreQ1	TPP	SAM-II
OCCN1CCSC1=S	0	0	0
CC(C)n1cnnc1CN(C)C(=O)c1cccc(NCC(=O)O)c1	0	0	0
CCOc1c(CNCCCn2ccnc2)cc(Cl)cc1OC	0	0	0
OCCOc1ccc(CN2CCOC(c3ccc(Cl)cc3)C2)cc1 (centres unmarked)	0	0	0
Cc1nc2c(c(N3CCN(c4ccccc4O)CC3)n1)CCNCC2	0	0	0
Cc1ccc(-c2cnc(NCc3c(F)cccc3Cl)n2C)cc1	0	0	0
c1ccc(CCNC2CCC3(CCNCC3)CC2)nc1	0	0	0
Cc1ccc(NC2c3ccccc3C(=O)N2c2cccnc2)cc1C (centres unmarked)	0	0	0
CCCOc1ccc(C2c3c(-c4ccccc4O)n[nH]c3C(=O)N2CCO)cc1 (centres unmarked)	0	0	-

Calls as published in the ROBIN set (doi:10.1002/anie.202211358).